The text below walks through data of PMC10548113, “Modeling a variant of unknown significance in the Drosophila ortholog of the human cardiogenic gene NKX2.5”.

These are yes or no findings as the source states them, for the method shown. Binding can be weak; no strength is given. Sequences can lack the tags named with a protein. For some of these results: Binding seen in cells or lysates may run through a third protein.

Test [1] has as its target GST-Doc1 (Drosophila). As to the kind of experiment: pull-down; saturation binding: GST-Doc1 immobilised on glutathione agarose, incubated with 0-500 nM MBP-Tin HD WT or R321N; wash buffer 20 mM Tris-HCl pH 8, 150 mM NaCl, 1 mM DTT, 0.2% Triton X-100; anti-MBP western blot quantified in ImageJ, one-site specific binding model; both purified. A general note: Immunoblotting shows a protein as a band on a membrane.

The target of test [2] is GST-Doc1 (Drosophila). As to the kind of experiment: pull-down; GST or GST-Doc1 immobilised on glutathione agarose (from clarified lysate, extensively washed), incubated with 10 µM MBP, MBP-Tin HD WT or R321N; wash buffer 20 mM Tris-HCl pH 8, 150 mM NaCl, 1 mM DTT, 0.2% Triton X-100; bound MBP proteins detected by anti-MBP western blot; both purified.

B1: MBP-Tin homeodomain, wild type (domain or fragment, UniProt P22711 301-360)
chain: KRKPRVLFSQAQVLELECRFRLKKYLTGAEREIIAQKLNLSATQVKIWFQNRRYKSKRGD
For the molecule B1, the binding entry with GST-Doc1 (Drosophila) [1] and with GST-Doc1 (Drosophila) [2] was “binds” each time.

B2: MBP-Tin^R321N homeodomain (domain or fragment, UniProt P22711 301-360)
chain: KRKPRVLFSQAQVLELECRFNLKKYLTGAEREIIAQKLNLSATQVKIWFQNRRYKSKRGD
Consider B2, for which the binding entry with GST-Doc1 (Drosophila) [1] and with GST-Doc1 (Drosophila) [2] was “binds” in each case.
